Measured values reported in patent US11440939B2, “Anticancer peptides” (IDP DISCOVERY PHARMA, S.L., priority 2017, dated 2022).
“Also recorded” adds a separate entry of the source. At least one peptide structure holds a part that was inferred or is arguable (an end, a ring closure or a residue). Numbered stars: 1 amine (or outer) side, 2 acyl side, 3 side chain; on linkers, the order of the positions; unused ones are H or OH. Bridge positions count the residues as written; N and C are the ends. Square brackets hold non-standard residues; d marks the D form. Peptide text beside a SMILES is read from it. ξ: configuration not given here. ξαMeNle(6-ylidene) = CC(CCCC=[*:3])(N[*:1])C(=O)[*:2]; X1 = CC(CCCCCCC=[*:3])(N[*:1])C(=O)[*:2]

Experiments:
[1] = test system: cleaved Parp protein in NCI-H187 cells; assay: Western blot of cleaved Parp (apoptosis); type: cell-based; settings: 1 μM and 10 μM, 6 h and 12 h
[2] = test system: activated Caspases-3 in NCI-H510A cells; assay: Western blot of activated Caspase 3 (apoptosis); type: cell-based; settings: 1 μM and 10 μM, 6 h
[3] = test system: H510A cells; assay: Subcutaneous xenograft model, tumor volume; type: in vivo, mice; settings: for Tumor Volume: H510A xenograft mice
[4] = test system: cancer cell lines; assay: Inhibition of cancer cell proliferation, general statements; type: cell-based
Experimental: MCF-7, NCI-H187, NCI-H69, NCI-H526 and H5B cells were seeded at a density of 5000 cells/well; NCI-H524 and NCI-H82 were seeded at a density of 2500 cells/well; HL-60 and NCI-H510A at 10000 cells/well in 100 μl of medium in 96 well plates. After 24 h, the compounds to be tested were added to calculate the dose/response curve at the starting concentration of 100 μM with serial dilutions (1:1). Controls were the untreated cells. Each experiment was performed in triplicate.
Cells were incubated during 72 h in incubator under CO2 atmosphere at 37° C. Cell viability was measured by means of MTT (3-(4,5-dimethylthiazol-2-yl)-2,5-diphenyltetrazolium bromide) assay, Alamar Blue® (Biosource DAL1100) and Hexosaminidase activity test, consecutively, following manufacturer instructions.
Data analysis was performed calculating the percentage of cell viability normalized vs. the values of negative control, which was considered equal to 100%. The dose/response curve was fitted through the sigmoidal equation dose-response (variable slope) and the EC50 values were calculated as follow: Y=Bottom+(Top−Bottom)/(1+10^{[(Log EC50−X)*HillSlope]},

CC(C)C[C@H](NC(=O)[C@H](CCCCN)NC(=O)[C@@H](NC(=O)[C@@H](N)CCCNC(=N)N)C(C)C)C(=O)N[C@H](C(=O)N[C@@H](CC(N)=O)C(=O)N[C@@H](CC(C)C)C(=O)NC1(C)CCCCCCC=CCCCC(C)(C(=O)N[C@H](C(=O)N2CCC[C@H]2C(N)=O)C(C)C)NC(=O)[C@H](CCC(=O)O)NC(=O)[C@H](CCCNC(=N)N)NC(=O)[C@H](CC(C)C)NC(=O)[C@H]([C@@H](C)O)NC(=O)[C@H](C)NC(=O)[C@H](Cc2ccccc2)NC1=O)C(C)C (stereo partly shown) [H14] (H-RVKLVNL[X1]FATLRE[ξαMeNle(6-ylidene)]VP-NH2; staple 8-15; N-terminus and C-terminus assumed)
apoptosis, amount of cleaved Parp protein (Western blot) [1]: induced apoptosis
apoptosis, amount of activated Caspases-3 (Western blot) [2]: induced apoptosis
Tumor Volume ([3]; Day of treatment 1, IDPH14 25 mg/kg i.p.): 70.0
Tumor Volume ([3]; Day of treatment 6, IDPH14 25 mg/kg i.p.): 70.1
Tumor Volume ([3]; Day of treatment 9, IDPH14 25 mg/kg i.p.): 150.1
Tumor Volume ([3]; Day of treatment 16, IDPH14 25 mg/kg i.p.): 250.4
Tumor Volume ([3]; Day of treatment 21, IDPH14 25 mg/kg i.p.): 350
tumor growth / cancer progression (in words) ([3]; H14 i.p. with respect to the control): reduced significantly tumor growth; also recorded: slows down cancer progression
tumor reduction with respect to the control ([3]; at the end-time (when the control is sacrificed)): 70%
inhibition of cancer cell proliferation (in words) [4]: active
